Assay [1] addresses T1, human IL-22 (human, UniProt Q9GZX6 34-179).
T1 sequence (looked up): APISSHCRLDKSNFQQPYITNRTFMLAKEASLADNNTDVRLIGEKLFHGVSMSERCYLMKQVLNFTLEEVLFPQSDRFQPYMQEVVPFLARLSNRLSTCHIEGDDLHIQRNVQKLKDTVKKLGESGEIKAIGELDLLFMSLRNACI
The experiment in a line: ELISA binding.

Assay [2] has as its target T1, human IL-22. The experiment in a line: SPR (ProteOn XPR36).
Assay [3] addresses T1, human IL-22. Kind of assay: SPR (ProteOn XPR36), figure legend.
Assay [4] deals with T1, human IL-22. The experiment in a line: sandwich ELISA: h antibody coated, IL-22 captured, detection with hm antibody.
Assay [5] has as its target T1, human IL-22. Kind of assay: ELISA on coated IL-22, antibody with mouse Fc (hm) detected by HRP-conjugated secondary antibody.
A further assay has as its target T2, 74-179 aa.
T2 sequence: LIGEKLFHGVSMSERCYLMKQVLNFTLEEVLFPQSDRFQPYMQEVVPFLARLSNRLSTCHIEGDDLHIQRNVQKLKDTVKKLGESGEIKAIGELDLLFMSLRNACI
Kind of assay: luciferase immunoprecipitation (LIPS) with crude extract of HEK 293 cells expressing the luciferase fusion.

In assay [6] the target is T1, human IL-22. Kind of assay: PepStar peptide microarray with co-spotted full-length IL-22, fluorescently labelled anti-Fc secondary antibody.
Assay [7] concerns the target T1, human IL-22. The experiment in a line: SPR (ProteOn XPR36), antibody captured by anti-human IgG, IL-22 injected at 100, 33.33, 11.11, 3.70, 1.23 and 0 nM.
The target in another assay is T3, m17F (Mus musculus) (UniProt Q7TNI7).
T3 sequence (cytokine chain, looked up): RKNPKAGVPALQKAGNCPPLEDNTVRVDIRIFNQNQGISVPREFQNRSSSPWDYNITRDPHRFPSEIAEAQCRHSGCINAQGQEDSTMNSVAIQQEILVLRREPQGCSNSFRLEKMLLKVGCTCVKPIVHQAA
The experiment in a line: ELISA, titration of antibody 9A2 on recombinant murine IL17F.

These are yes or no findings as the source states them, for the method shown. Some results given as binding are weak or reduced against the parent protein; the word gives no strength.

B1: IL-22 specific antibody 35G11 (antibody, human IgG4, lambda, V domains shown)
VH: QVQLVQSGSELRRPGASVNISCKASGYGFNTYAMNWVRQAPGQGPEWMGWINTDTGDPTYAQGFTGRFAFFLDTSASTAFLQITRLTGEDTAVYFCARTRNNWNGVYYHYSGLDVWGQGTTVTVSS
VL: QSVLTQPPSASGTPGQTVTISCSGSSPNLGDNYVYWYHQVPGTAPKLLIFRNTQRPSGVTDRFSGSKYGTSASLAISDLRSDDEGDFYCASWDDRLSRLVFGGGTKLTVLG
notes: also called a-IL-22-35G11; aIL-22 35G11
B1: the binding result in the assay with human IL-22 [1], in the assay with human IL-22 [2], with human IL-22 [3], with human IL-22 [4], with human IL-22 [5] and in the assay with 74-179 aa was “binds” in each case. The binding entry with human IL-22 [6] and in the assay with human IL-22 [7] was “binds” in each case.

B2: IL-22 specific antibody 51G4 (antibody, human IgG2, lambda, V domains shown)
VH: EVQLVQSGAEVKKPGASVKVSCKTSGYKFALYDIHWVRQAPGQGLEWMGWINAANGDTEYSQKFEGRVTITRDTSATTVYMELNSLTYGDTAVYYCAREEGLYNWFDPWGQGTLVTVSS
VL: SYELTQDPAVSVALGQTVRITCQGDSLRIYYANWYQQKPGQAPVLVIYGKSNRPSGIPDRFSASSSGNTASLTITGAQAEDEADYYCNSRDSSDKHPVPFGGGTKLTVLS
notes: also called a-IL-22-51G4
B2: the binding entry in the assay with human IL-22 [1], with human IL-22 [4], in the assay with human IL-22 [5] and with human IL-22 [6] was “binds” each time.

B3: IL-17F specific antibody 9A2 (antibody, human IgG1, kappa, V domains shown)
VH: EVQLEESGGGLVQPGGSLRLSCAASGFPFSNYEMNWVRQAPGKGLEWISYISVSGGPAHYADSVKGRFTISRDDATKSLFLQMNRLRADDTAVYYCVRREYVTGRNYNYYPYMDVWGTGTTVTVSP
VL: DIQMTQSPSSLSASVGDRVTITCRASQTISDYLNWYQHKPGEAPKLLIYSASTLQRGVPSRFSGSGSGTDFVFTISSLQSDDFATYYCQQTSSTALTFGGGTKVEVKR
notes: also called a-IL17-9A2
In the case of B3, the binding result with m17F (Mus musculus) is recorded as “no binding (tested: 1 µg/ml)”.

The record behind these values is patent US20140363422A1 (IMMUNOQURE, published 2014).
